± gives the standard deviation. The list shows a part of the results. Many of these values have a large error. A value given as a limit tells only on which side of the number the result lay.

The assay deals with EfPiwi piRISC loaded with L1MC piRNA (26 nt). In words: pre-steady-state target cleavage rate (min^-1); guide: L1MC piRNA 5'p-UAACUAAAUACUAUGCAAGCUGUAGG; MIWI and MILI are mouse PIWI proteins and EfPiwi is from a freshwater sponge; tags in brackets are library labels; higher = faster piRNA-guided slicing of the target. Summed up:
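Active affinity-purified piRISC (1 nM) loaded with one synthetic guide was mixed with a transcribed, DNA-blocked target RNA library (0.1 nM), with or without 500 nM GTSF1 partner protein, in HEPES–potassium acetate buffer at 33 °C for 0–8 or 0–960 min. Uncleaved targets were sequenced, normalised to depth and to weakly complementary targets, and pooled across three trials, with k3 capped at 0.0001 min^-1. The pre-steady-state cleavage rate was determined with a burst-and-steady-state fit.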

[1] abbreviates: auxiliary factor: 500 nM Ephydatia muelleri Gtsf1.
The mark [2] stands for this setting: auxiliary factor: none (no Gtsf1).

For the sequence UCCUGGAUCAGCUUGCAUAGUACUUAGUUA, the “pre-steady-state target cleavage rate” value runs as follows: under setting [1], 0.0145 ± 0.0031; under setting [2], 0.0113 ± 0.0052.

With UCCUGCUACAGCUUGCAUUGUAUUUAGUAA, the “pre-steady-state target cleavage rate” value under setting [1] was determined as 0.00316 ± 0.0014 and the “pre-steady-state target cleavage rate” value under setting [2] turned out to be 0.000376 ± 0.014.

With UCCUGGAUCUCGUUGCAUAGUAUUUAGUUA, the “pre-steady-state target cleavage rate” value is, setting by setting: under setting [1], 0.0466 ± 0.011; under setting [2], 0.00142 ± 0.0066.

Regarding “UCCUGCUACAGCUUGCAUAGUAUUUAGUUG [g2:g25:cont:t1G]”, the “pre-steady-state target cleavage rate” value under setting [1] was determined as 0.00685 ± 0.0019 and the “pre-steady-state target cleavage rate” value under setting [2] came out at 0.000678 ± 0.0093.

For the sequence UCCUGGAAGACCUUGCAUAGUAUUUAGUUA, the “pre-steady-state target cleavage rate” value under setting [1] is 0.00668 ± 0.003 and the “pre-steady-state target cleavage rate” value under setting [2] stood at 0.000565 ± 0.018.

In the case of UCCUGGAACAGGUUGCAUAGUAUUUUGUUA, the “pre-steady-state target cleavage rate” value turned out to be 0.00366 ± 0.0015 under setting [1] and 0.000549 ± 0.018 under setting [2].

Turning to UCCUGGAUCACGUUGCAUAGUAUUUAGUUA, the “pre-steady-state target cleavage rate” value came out at 0.0686 ± 0.017 under setting [1] and 0.00188 ± 0.0074 under setting [2].

In the case of UCCUGGAACAGCUUGCAAUGUAUUUAGUUA, the “pre-steady-state target cleavage rate” value was 0.00454 ± 0.0035 under setting [1] and 0.000858 ± 0.01 under setting [2].

Take UCCUGGAUGAGCUUGCAUAGUAUUUAUGUUA: the “pre-steady-state target cleavage rate” value was 0.0018 ± 0.003 under setting [1] and 0.00179 ± 0.0071 under setting [2].

For UCCUGGUACAGCUUGCAUUGUAUUUAGUAA, the “pre-steady-state target cleavage rate” value is, setting by setting: under setting [1], 0.00142 ± 0.007; under setting [2], 0.000717 ± 0.014.

As to UCCUGGAUGAGCUAGCAUAGUAUUAAGUUA, the “pre-steady-state target cleavage rate” value is, setting by setting: under setting [1], 0.00293 ± 0.0024; under setting [2], 0.000739 ± 0.0094.

Consider UCCUGGUUCAGCUUGCAUAGUUUUUAGUUA, for which the “pre-steady-state target cleavage rate” value by setting is: under setting [1], 0.00498 ± 0.0023; under setting [2], 0.000717 ± 0.018.

Consider UCCUGGUACAGCAUGCAUACUAUUUAGUUA, for which the “pre-steady-state target cleavage rate” value under setting [1] is 0.00483 ± 0.0019 and the “pre-steady-state target cleavage rate” value under setting [2] is 0.00101 ± 0.01.

Consider UCCUGGAUGAGCUUGCAUAGUAUUUUCUUA, for which the “pre-steady-state target cleavage rate” value reads like this: under setting [1], 0.00195 ± 0.0025; under setting [2], 0.000488 ± 0.015.

UCCUGGAUGUCGAUGCAUAGUAUUUAGAAA: the “pre-steady-state target cleavage rate” value runs as follows: under setting [1], 0.00216 ± 0.0032; under setting [2], 0.000529 ± 0.011.

Consider UCCUGGAUGAGCUAGCAUUGUAUUUAGUUA, for which the “pre-steady-state target cleavage rate” value is 0.00519 ± 0.0032 under setting [1] and 0.00038 ± 0.015 under setting [2].

In the case of UCCUGGAUGAGCUUGCAAAGUAUAUAGUUA, the “pre-steady-state target cleavage rate” value was 0.000499 ± 0.011 under setting [1] and under 0.0001 under setting [2].

For the sequence UCCUCCUACAGCUUGCAUAGUUUUUUCAAA, the “pre-steady-state target cleavage rate” value by setting is: under setting [1], 0.00481 ± 0.0034; under setting [2], 0.000875 ± 0.0089.

UCCUGCUAGAGCUUGCAAAGUAUUUAGUUA: the “pre-steady-state target cleavage rate” value was 0.00607 ± 0.0018 under setting [1] and 0.00104 ± 0.0076 under setting [2].

Source of the values: the supplement of paper PMC10338343.
